Among the data in article doi:10.1101/2024.03.29.586999 are binding values, retold here.

These are yes or no findings as the source states them, for the method shown. Binding seen in cells or lysates may run through a third protein. Some results given as binding are weak or reduced against the parent protein; the word gives no strength.

The test concerns the target poly(A) binding protein (human (endogenous in K562, THP1, HEK293T, HeLa)), P11940. The experiment in a line: co-IP. As to conditions: remark: other sources report otherwise.

B1: Ribonuclease inhibitor 1, P13489 1-461 (protein)
chain: MSLDIQSLDIQCEELSDARWAELLPLLQQCQVVRLDDCGLTEARCKDISSALRVNPALAELNLRSNELGDVGVHCVLQGLQTPSCKIQKLSLQNCCLTGAGCGVLSSTLRTLPTLQELHLSDNLLGDAGLQLLCEGLLDPQCRLEKLQLEYCSLSAASCEPLASVLRAKPDFKELTVSNNDINEAGVRVLCQGLKDSPCQLEALKLESCGVTSDNCRDLCGIVASKASLRELALGSNKLGDVGMAELCPGLLHPSSRLRTLWIWECGITAKGCGDLCRVLRAKESLKELSLAGNELGDEGARLLCETLLEPGCQLESLWVKSCSFTAACCSHFSSVLAQNRFLLELQISNNRLEDAGVRELCQGLGQPGSVLRVLWLADCDVSDSSCSSLAATLLANHSLRELDLSNNCLGDAGILQLVESVRQPGCLLEQLVLYDIYWSEEMEDRLQALEKDKPSLRVIS
Regarding B1, the binding result is “binds”.
